# Laboratory results from the supplement of paper PMC3334620.
# In all, about 33,000 sequences were measured (“E-score (-0.5 to 0.5)”: median about -0.016, highest 2% from about 0.3 on). The list shows a part of the results.
# Molecular target: T1, Yer184c (UniProt P39961)
# T1 sequence: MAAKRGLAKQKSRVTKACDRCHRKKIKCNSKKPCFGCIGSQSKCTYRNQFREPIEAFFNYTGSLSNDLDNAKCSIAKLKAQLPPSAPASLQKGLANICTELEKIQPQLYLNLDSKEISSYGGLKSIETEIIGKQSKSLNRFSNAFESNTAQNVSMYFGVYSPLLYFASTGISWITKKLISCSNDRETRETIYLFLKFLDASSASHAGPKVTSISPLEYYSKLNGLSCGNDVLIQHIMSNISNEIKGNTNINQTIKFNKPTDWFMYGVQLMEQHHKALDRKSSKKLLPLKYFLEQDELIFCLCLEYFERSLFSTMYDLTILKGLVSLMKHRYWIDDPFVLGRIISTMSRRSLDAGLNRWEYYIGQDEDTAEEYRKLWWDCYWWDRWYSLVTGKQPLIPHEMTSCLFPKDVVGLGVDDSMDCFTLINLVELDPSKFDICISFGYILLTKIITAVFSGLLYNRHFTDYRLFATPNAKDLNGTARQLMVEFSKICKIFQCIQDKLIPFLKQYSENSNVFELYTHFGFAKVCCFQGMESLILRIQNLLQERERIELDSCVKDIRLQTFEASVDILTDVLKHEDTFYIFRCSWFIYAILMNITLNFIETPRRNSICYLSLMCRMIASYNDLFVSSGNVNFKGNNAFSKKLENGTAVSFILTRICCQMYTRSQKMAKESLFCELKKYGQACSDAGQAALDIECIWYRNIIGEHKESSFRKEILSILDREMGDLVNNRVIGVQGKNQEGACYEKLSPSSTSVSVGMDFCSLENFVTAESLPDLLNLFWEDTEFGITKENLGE
# Assay: PBM E-score (8-mer binding enrichment) (E-score (-0.5 to 0.5)); higher = stronger / more preferred TF binding
# Settings: protein concentration: 100 nM; construct: GST-full length
# In short: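 Yeast transcription factors, full-length or as DNA-binding domains, were expressed with a GST tag using PURExpress in vitro transcription/translation. At about 100-200 nM they were applied to universal all-10-mer Agilent arrays, double-stranded by primer extension on fresh or once-stripped slides. Fluorescent anti-GST detected bound protein, and masliner normalised the scans. E-scores for ungapped eight-base words, pooled with reverse complements, came from the Universal PBM Analysis Suite.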
row,Sequence,PBM E-score
1,CCATCCCA,0.00331
2,AATGTGTC,0.0951
3,CGTTCTCA,-0.123
4,CCCTTAGA,-0.25
5,CAACCATC,-0.149
6,GGTTCGAC,-0.153
7,ACTACGCA,-0.102
8,AACGGGCC,-0.0595
9,CAGAGAGC,-0.088
10,AAAGAGTC,-0.129
11,ATTTACAG,0.146
12,AAGTGTCT,-0.0612
13,ACAGATTC,0.163
14,GCACCGCA,-0.254
15,AGGTGAAG,-0.032
16,TGTCGACA,-0.0666
17,GTACATAA,0.134
18,GCCGCCCC,-0.0231
19,ATCGGCAA,0.246
20,ACTGCAGC,-0.196
21,ACCGCCAC,-0.128
22,AAGGAATT,0.0261

row,Sequence,PBM E-score
1,CATCAGCC,0.00044
2,GATCAAGA,0.17
3,AATGAAAC,0.141
4,AACGCGGG,0.197
5,CACCGAGG,0.089
6,ACCTCCTG,-0.292
7,AAACTCGG,0.255
8,ACCCTGGG,-0.106
9,TACCTTCA,0.0985
10,AGACGCCA,-0.068
11,GCGATCCA,-0.139
12,CCAGCCAG,-0.244
13,AGATATTA,0.0953
14,TAAGAGTA,0.0956
15,CTGCATTA,-0.0183
16,CCAGAGGC,-0.254
17,CATGATCA,0.0702
18,AGGCTATA,0.00385
19,GGACTGGA,-0.0699
20,ACCTGGGG,-0.436
21,CCGCTTAA,0.122
22,CGACGCCC,0.00224

row,Sequence,PBM E-score
1,AATAGAGA,-0.117
2,CAAGCGAG,0.0234
3,CATCCCCA,-0.335
4,GCATAGAA,0.218
5,ACGAACGG,0.169
6,ACGTCTCG,0.0499
7,GTGGAGTA,-0.0641
8,CATTAATA,0.263
9,AACCGTGG,-0.0525
10,ACCCAGTA,-0.186
11,CCGCGCGC,0.154
12,CTGCTGCC,-0.155
13,GGTAGACA,-0.0672
14,ATCTCTTA,0.0605
15,AGAGTCCC,-0.23
16,ATGTGCAC,-0.0982
17,AAGCAGCT,0.0387
18,ACGAGGCT,-0.037
19,CTAATGGA,-0.095
20,CTATATTC,-0.0128
21,CCCCGATC,-0.0888
22,GGGCATGA,-0.275

row,Sequence,PBM E-score
1,AACGAGGT,-0.149
2,GTGTTTTA,0.0955
3,CCTCCGGA,0.337
4,AACACCAG,-0.16
5,CCGAGCAG,0.17
6,ATTAACCA,-0.114
7,TAGGGGGA,-0.234
8,AACTGGTA,0.0058
9,TTTCAAAA,0.247
10,TCAGCAGA,0.0479
11,GTTCCGAA,0.369
12,AGTACACT,-0.0934
13,CGCTCGTA,-0.183
14,TAACTGCA,0.00907
15,CTACAATA,0.0373
16,AAGTGAGA,-0.124
17,GCTACAAC,0.0298
18,TAGCGGGA,-0.0686
19,ATTCTCTC,-0.0372
20,ATCATCAA,0.114

# As a short view, part of the list above.
row,Sequence,PBM E-score
2,GTGTTTTA,0.0955
3,CCTCCGGA,0.337
4,AACACCAG,-0.16
5,CCGAGCAG,0.17
6,ATTAACCA,-0.114
7,TAGGGGGA,-0.234
